From patent US20210221768A1, “CRYSTALLINE FORMS OF 1-(ACYLOXY)-ALKYL CARBAMATE DRUG CONJUGATES OF NAPROXEN AND PREGABALIN” (Xgene Pharmaceutical Inc., priority 2018, published 2021)
Where two headings read alike, the source gives them in different places.

What was measured:
[1] = preclinical toxicology and safety pharmacology studies
[2] = phase I clinical studies in healthy volunteers

COc1ccc2cc([C@H](C)C(=O)O[C@@H](C)OC(=O)NC[C@H](CC(=O)O)CC(C)C)ccc2c1 [Formula I, (S)-3-((((R)-1-((S)-2-(6-methoxynaphthalen-2-yl)propanoyloxy)ethoxy)carbonylamino)methyl)-5-methylhexanoic acid]
pharmacological effects beyond those expected from exposure to naproxen and pregabalin [1]: does not cause any pharmacological effects beyond those expected from exposure to naproxen and pregabalin
pharmacological effects beyond those expected from exposure to naproxen and pregabalin [2]: does not cause any pharmacological effects beyond those expected from exposure to naproxen and pregabalin
